Test results taken from the supplement of paper PMC4604168 (melanoma cell lines).
The other results are listed elsewhere or left out. Single values are uncertain, as repeats are few or missing.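 Cells were imaged in 1,536-well plates, and nuclei stained with an antibody against cleaved PARP were counted against all DNA-stained nuclei to give the apoptosis fraction. Screening doses were chosen to leave most cells alive, and resting and induced cleaved-PARP levels differ strongly between cell lines.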

How the values were obtained:
Test in all cases: cleaved PARP positive nuclei fraction relative to DMSO control; melanoma cells; higher = more apoptosis
Details in all cases: library dose: low library concentration; 72 h
[1] = test system: 501Mel
[2] = test system: A101D
[3] = test system: A2058
[4] = test system: A375
[5] = test system: C32
[6] = test system: CBRC013 (line from a melanoma biopsy)
[7] = test system: CBRC014 (line from a melanoma biopsy)
[8] = test system: CBRC016 (line from a melanoma biopsy)
[9] = test system: CBRC017 (line from a melanoma biopsy)
[10] = test system: CBRC034 (line from a melanoma biopsy)
[11] = test system: COLO792
[12] = test system: COLO800
[13] = test system: COLO829
[14] = test system: G361
[15] = test system: IPC-298
[16] = test system: IST-MEL1
[17] = test system: LB2518-MEL
[18] = test system: LOXIMVI
[19] = test system: CBRC008 (line from a melanoma biopsy)
[20] = test system: MEL-HO

| SMILES | cleaved PARP positive nuclei fraction [1] | cleaved PARP positive nuclei fraction [2] | cleaved PARP positive nuclei fraction [3] | cleaved PARP positive nuclei fraction [4] | cleaved PARP positive nuclei fraction [5] | cleaved PARP positive nuclei fraction [6] | cleaved PARP positive nuclei fraction [7] | cleaved PARP positive nuclei fraction [8] | cleaved PARP positive nuclei fraction [9] | cleaved PARP positive nuclei fraction [10] | cleaved PARP positive nuclei fraction [11] | cleaved PARP positive nuclei fraction [12] | cleaved PARP positive nuclei fraction [13] | cleaved PARP positive nuclei fraction [14] | cleaved PARP positive nuclei fraction [15] | cleaved PARP positive nuclei fraction [16] | cleaved PARP positive nuclei fraction [17] | cleaved PARP positive nuclei fraction [18] | cleaved PARP positive nuclei fraction [19] | cleaved PARP positive nuclei fraction [20] |
| --- | --- | --- | --- | --- | --- | --- | --- | --- | --- | --- | --- | --- | --- | --- | --- | --- | --- | --- | --- | --- |
| COCC[n+]1c2c(n(Cc3cnccn3)c1C)C(=O)c1ccccc1C2=O + O=C(O)C(=O)Nc1sc2c(c1C(=O)O)CCNC2 [TCS401] (first compound 0.0004 µM, partner dose 1.66667 µM) | 87.1% | 116% | 278% | 235% | 142% | 94.5% | 72.7% | 182% | 47.3% | 176% | 72% | 152% | 124% | 68.2% | 35.7% | 48.9% | 88.6% | 114% |  |  |
| C#Cc1cccc(Nc2ncnc3cc(OCCOC)c(OCCOC)cc23)c1 [erlotinib] + Nc1cccc2c1CN(C1CCC(=O)NC1=O)C2=O [lenalidomide] (first compound 0.8 µM, partner dose 1 µM) | 89.3% | 140% | 106% | 221% | 65.9% |  | 114% | 93.9% | 141% | 68.8% | 89.4% | 132% | 90.2% | 125% | 94.5% | 327% | 102% | 100% | 292% | 59.7% |
| Cn1nnc2c(C(N)=O)ncn2c1=O [temozolomide] + c1cc(-c2cnn3cc(-c4ccc(OCCN5CCCCC5)cc4)cnc23)ccn1 [Dorsomorphin] (first compound 2 µM, partner dose 0.4 µM) | 126% | 34.9% | 156% | 146% | 26.3% | 539% | 110% | 37.9% | 170% | 59.3% | 72.7% | 84.7% | 81.1% | 146% | 192% | 42.2% | 70.6% | 22.9% |  |  |
| Cc1ccc(NC(=O)c2cccc(N(C)C)c2)cc1NC(=O)c1ccc(O)cc1 + CCN(CC)CCCCNc1ncc2cc(-c3cc(OC)cc(OC)c3)c(NC(=O)NC(C)(C)C)nc2n1 [PD173074] (first compound 2 µM, partner dose 0.1 µM) | 107% | 80.6% | 123% | 156% | 178% | 174% | 127% | 90.5% | 86.6% | 107% | 111% | 89.4% | 111% | 69.1% | 143% | 80.5% | 98.7% | 27.4% |  |  |
| C=CCNC1=C2C[C@@H](C)C[C@H](OC)[C@H](O)[C@@H](C)/C=C(\C)[C@H](OC(N)=O)[C@@H](OC)/C=C\C=C(/C)C(=O)NC(=CC1=O)C2=O [Tanespimycin] + CC(=O)c1c(C)c2cnc(Nc3ccc(N4CCNCC4)cn3)nc2n(C2CCCC2)c1=O [palbociclib] (first compound 0.002 µM, partner dose 0.04 µM) | 218% | 57.3% | 54.2% | 189% | 221% |  | 97.4% | 67.5% | 133% | 64.2% | 188% | 119% | 109% | 125% | 50.1% | 116% | 107% | 113% | 143% | 51.5% |
| CC(=O)c1c(C)c2cnc(Nc3ccc(N4CCNCC4)cn3)nc2n(C2CCCC2)c1=O [palbociclib] + Cn1nnc2c(C(N)=O)ncn2c1=O [temozolomide] (first compound 0.04 µM, partner dose 2 µM) | 97% | 151% | 236% | 155% | 456% |  | 99% | 36.4% | 96.2% | 62.7% | 157% | 99.1% | 125% | 179% | 47.6% | 67.9% | 132% | 49.1% | 72.4% | 150% |
| OCc1c[nH]c2ccccc12 [Indole-3-carbinol] + COc1ccc(Cl)c(Nc2nc3ccccc3nc2NS(=O)(=O)c2cccc(NC(=O)C(C)(C)N)c2)c1 [XL147] (first compound 0.8 µM, partner dose 0.8 µM) | 89.4% | 49.8% | 56% | 191% | 80.1% |  | 104% | 89.8% | 106% | 106% | 174% | 115% | 106% | 106% | 87.9% | 61.4% | 111% | 88.3% | 82.2% | 87.7% |
| C=CCNC1=C2C[C@@H](C)C[C@H](OC)[C@H](O)[C@@H](C)/C=C(\C)[C@H](OC(N)=O)[C@@H](OC)/C=C\C=C(/C)C(=O)NC(=CC1=O)C2=O [Tanespimycin] + Cc1nc(Nc2ncc(C(=O)Nc3c(C)cccc3Cl)s2)cc(N2CCN(CCO)CC2)n1 [dasatanib] (first compound 0.002 µM, partner dose 0.004 µM) | 111% | 48.8% | 152% | 70.1% | 157% |  | 111% | 56.3% | 150% | 241% | 95.2% | 88.9% | 143% | 119% | 180% | 140% | 99.9% | 141% | 105% | 35.5% |
| Nc1cccc2c1CN(C1CCC(=O)NC1=O)C2=O (stereo not given) [lenalidomide] + O=C(O)C(=O)Nc1sc2c(c1C(=O)O)CCNC2 [TCS401] (first compound 1 µM, partner dose 1.66667 µM) | 304% | 55.5% | 68.6% | 48.4% | 92.7% | 103% | 80.3% | 34.1% | 69.1% | 513% | 109% | 106% | 138% | 38% | 79.5% | 44% | 78.3% | 65.4% |  |  |
| Cn1nnc2c(C(N)=O)ncn2c1=O [temozolomide] + COc1ccc(COc2ccc(Cc3cnc(N)nc3N)cc2OC)cc1 [GW2580] (first compound 2 µM, partner dose 1 µM) | 54.6% | 128% | 88% | 101% | 73.1% | 135% | 125% | 49.1% | 86.6% | 88.2% | 147% | 156% | 126% | 226% | 87.2% | 139% | 73.6% | 59.6% |  |  |
| Cc1nc(Nc2ncc(C(=O)Nc3c(C)cccc3Cl)s2)cc(N2CCN(CCO)CC2)n1 [dasatanib] + Oc1nc(-c2ccc(C(F)(F)F)cc2)nc2c1CSCC2 [XAV939] (first compound 0.004 µM, partner dose 2 µM) | 72.5% | 71.1% | 79.8% | 166% | 108% | 37.9% | 118% | 108% | 79.6% | 181% | 231% | 66.4% | 166% | 46.8% | 34.5% | 141% | 50.1% | 63.8% |  |  |
| Cn1cncc1[C@@](N)(c1ccc(Cl)cc1)c1ccc2c(c1)c(-c1cccc(Cl)c1)cc(=O)n2C [tipifarnib] + O=S(=O)(c1ccccc1)N(CC(F)(F)F)c1ccc(C(O)(C(F)(F)F)C(F)(F)F)cc1 [T0901317] (first compound 0.01 µM, partner dose 1.4 µM) | 128% | 321% | 116% | 298% | 45% | 107% | 88.2% | 165% | 91.1% | 211% | 69.3% | 121% | 116% | 162% | 153% | 116% | 49.7% | 60.4% |  |  |
| O=C(CCCCCCC(=O)Nc1ccccc1)NO [vorinostat] + Cc1cc([N+](=O)[O-])ccc1NS(=O)(=O)c1cc(Cl)ccc1Cl [FH535] (first compound 0.08 µM, partner dose 1 µM) | 79.5% | 383% | 168% | 68.6% | 126% | 78.1% | 133% | 888% | 261% | 162% | 113% | 174% | 112% | 125% | 47.4% | 103% | 186% | 74.6% |  |  |
| Cc1nc(Nc2ncc(C(=O)Nc3c(C)cccc3Cl)s2)cc(N2CCN(CCO)CC2)n1 [dasatanib] + COCC[n+]1c2c(n(Cc3cnccn3)c1C)C(=O)c1ccccc1C2=O [YM155] (first compound 0.004 µM, partner dose 0.0004 µM) | 152% | 297% | 43.7% | 185% | 89.3% |  | 107% | 163% | 124% | 265% | 178% | 120% | 126% | 69.5% | 96.9% | 69% | 137% | 141% | 260% | 90.3% |
| Clc1ccc(Nc2nnc(Cc3ccncc3)c3ccccc23)cc1 [vatalanib] + COc1ccc(Cl)c(Nc2nc3ccccc3nc2NS(=O)(=O)c2cccc(NC(=O)C(C)(C)N)c2)c1 [XL147] (first compound 2 µM, partner dose 0.8 µM) | 158% | 143% | 121% | 202% | 45.5% |  | 156% | 214% | 138% | 81% | 146% | 155% | 40.5% | 105% | 100% | 100% | 118% | 35.7% | 323% | 124% |
| COc1cc(Nc2ncc(F)c(Nc3ccc4c(n3)NC(=O)C(C)(C)O4)n2)cc(OC)c1OC [Tamatinib] + Cc1cc([N+](=O)[O-])ccc1NS(=O)(=O)c1cc(Cl)ccc1Cl [FH535] (first compound 0.4 µM, partner dose 1 µM) | 108% | 124% | 133% | 157% | 99.3% | 411% | 211% | 433% | 332% | 349% | 200% | 214% | 97.3% | 109% | 163% | 127% | 105% | 104% |  |  |

2 records picked at random from the list so far:

| SMILES | cleaved PARP positive nuclei fraction [1] | cleaved PARP positive nuclei fraction [2] | cleaved PARP positive nuclei fraction [3] | cleaved PARP positive nuclei fraction [4] | cleaved PARP positive nuclei fraction [5] | cleaved PARP positive nuclei fraction [6] | cleaved PARP positive nuclei fraction [7] | cleaved PARP positive nuclei fraction [8] | cleaved PARP positive nuclei fraction [9] | cleaved PARP positive nuclei fraction [10] | cleaved PARP positive nuclei fraction [11] | cleaved PARP positive nuclei fraction [12] | cleaved PARP positive nuclei fraction [13] | cleaved PARP positive nuclei fraction [14] | cleaved PARP positive nuclei fraction [15] | cleaved PARP positive nuclei fraction [16] | cleaved PARP positive nuclei fraction [17] | cleaved PARP positive nuclei fraction [18] | cleaved PARP positive nuclei fraction [19] | cleaved PARP positive nuclei fraction [20] |
| --- | --- | --- | --- | --- | --- | --- | --- | --- | --- | --- | --- | --- | --- | --- | --- | --- | --- | --- | --- | --- |
| Cc1nc(Nc2ncc(C(=O)Nc3c(C)cccc3Cl)s2)cc(N2CCN(CCO)CC2)n1 [dasatanib] + Oc1nc(-c2ccc(C(F)(F)F)cc2)nc2c1CSCC2 [XAV939] (first compound 0.004 µM, partner dose 2 µM) | 72.5% | 71.1% | 79.8% | 166% | 108% | 37.9% | 118% | 108% | 79.6% | 181% | 231% | 66.4% | 166% | 46.8% | 34.5% | 141% | 50.1% | 63.8% |  |  |
| Cc1nc(Nc2ncc(C(=O)Nc3c(C)cccc3Cl)s2)cc(N2CCN(CCO)CC2)n1 [dasatanib] + COCC[n+]1c2c(n(Cc3cnccn3)c1C)C(=O)c1ccccc1C2=O [YM155] (first compound 0.004 µM, partner dose 0.0004 µM) | 152% | 297% | 43.7% | 185% | 89.3% |  | 107% | 163% | 124% | 265% | 178% | 120% | 126% | 69.5% | 96.9% | 69% | 137% | 141% | 260% | 90.3% |
